Here are results for two substances from publication PMC9064079.

Amino acid sequences for entries named in this document (tags omitted).
UniProt P35579: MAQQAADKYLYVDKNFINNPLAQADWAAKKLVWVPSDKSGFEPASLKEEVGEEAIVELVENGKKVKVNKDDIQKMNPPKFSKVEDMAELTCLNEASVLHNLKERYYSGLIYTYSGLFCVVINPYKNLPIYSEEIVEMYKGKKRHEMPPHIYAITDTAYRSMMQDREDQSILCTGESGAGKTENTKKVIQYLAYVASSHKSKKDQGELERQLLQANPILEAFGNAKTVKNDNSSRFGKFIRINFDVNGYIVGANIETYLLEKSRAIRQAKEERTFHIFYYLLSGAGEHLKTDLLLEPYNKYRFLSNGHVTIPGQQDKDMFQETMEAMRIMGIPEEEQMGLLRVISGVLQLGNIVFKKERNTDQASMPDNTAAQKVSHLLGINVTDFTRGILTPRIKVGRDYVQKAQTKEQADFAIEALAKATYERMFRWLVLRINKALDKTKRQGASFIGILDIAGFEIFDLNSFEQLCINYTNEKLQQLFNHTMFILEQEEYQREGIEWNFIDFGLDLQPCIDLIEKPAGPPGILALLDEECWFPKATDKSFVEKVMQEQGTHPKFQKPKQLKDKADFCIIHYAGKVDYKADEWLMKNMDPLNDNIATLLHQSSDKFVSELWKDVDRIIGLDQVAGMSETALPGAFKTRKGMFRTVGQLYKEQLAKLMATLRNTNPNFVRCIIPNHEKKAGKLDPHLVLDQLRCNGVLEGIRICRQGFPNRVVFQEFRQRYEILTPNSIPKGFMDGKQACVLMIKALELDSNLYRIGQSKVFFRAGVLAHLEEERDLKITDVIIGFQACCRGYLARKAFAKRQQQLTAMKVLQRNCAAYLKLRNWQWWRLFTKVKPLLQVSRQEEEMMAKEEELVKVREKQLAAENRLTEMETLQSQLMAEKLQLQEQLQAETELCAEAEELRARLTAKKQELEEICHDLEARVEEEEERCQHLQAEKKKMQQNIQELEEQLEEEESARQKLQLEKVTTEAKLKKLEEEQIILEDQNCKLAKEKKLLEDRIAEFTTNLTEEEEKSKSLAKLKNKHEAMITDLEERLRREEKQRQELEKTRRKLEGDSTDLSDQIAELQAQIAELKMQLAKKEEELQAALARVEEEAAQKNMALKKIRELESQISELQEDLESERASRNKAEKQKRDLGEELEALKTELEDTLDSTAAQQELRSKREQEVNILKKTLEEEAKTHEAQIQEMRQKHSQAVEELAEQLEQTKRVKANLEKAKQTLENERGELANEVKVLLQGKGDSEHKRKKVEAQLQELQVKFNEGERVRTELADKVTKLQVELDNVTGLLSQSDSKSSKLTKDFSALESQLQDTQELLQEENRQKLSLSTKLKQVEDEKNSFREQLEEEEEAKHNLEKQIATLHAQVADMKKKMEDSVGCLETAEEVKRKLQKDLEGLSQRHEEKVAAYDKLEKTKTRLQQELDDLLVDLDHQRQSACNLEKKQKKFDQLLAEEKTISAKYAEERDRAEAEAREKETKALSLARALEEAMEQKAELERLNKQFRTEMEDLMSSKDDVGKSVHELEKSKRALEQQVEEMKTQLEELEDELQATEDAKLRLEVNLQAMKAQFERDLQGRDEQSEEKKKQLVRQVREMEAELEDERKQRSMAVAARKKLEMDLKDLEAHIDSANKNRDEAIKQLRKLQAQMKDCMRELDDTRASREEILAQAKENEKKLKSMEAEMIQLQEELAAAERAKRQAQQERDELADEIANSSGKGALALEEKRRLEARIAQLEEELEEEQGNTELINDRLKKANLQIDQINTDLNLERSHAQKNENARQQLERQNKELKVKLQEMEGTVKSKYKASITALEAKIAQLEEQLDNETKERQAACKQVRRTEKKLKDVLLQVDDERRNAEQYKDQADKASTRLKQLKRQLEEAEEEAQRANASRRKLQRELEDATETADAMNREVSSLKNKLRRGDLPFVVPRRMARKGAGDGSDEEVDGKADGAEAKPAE

No constants are given. Whether binding was seen depends on the method and setting. In cells and extracts the contact can be indirect. Here binding means that the protein was enriched with, or labelled near, the bait; the list need not be complete.

This assay addresses Purified human Zn7-MT-3 (metallothionein 3) (human) (UniProt P25713). The assay can be described thus: affinity purification with mass spectrometry; 100 ug purified Zn7MT-3 covalently cross-linked to amine-reactive agarose beads, incubated with 1 mg HK-2 lysate; eluted in high salt buffer, SDS-PAGE, silver stain, excised bands, MALDI-TOF/TOF MS/MS; only the target purified.

“Myosin heavy chain-9, non-muscle (from UniProt P35579 1-1960)”: the binding entry is given as “binds”. Take “Tropomyosin alpha-1 chain (from UniProt P09493-5)”: the binding result is given as “binds”.
